“And” between values parts separate entries of the source, which are not always exact repeats. Identical values can stand only once. The shares of active, inactive and inconclusive entries below differ from those in the screen. Potencies beside an inconclusive call are fits to weak or partial responses and may not hold up. Some structures have more than one record in an assay (separate samples or runs), and their calls can disagree. The source made the active and inactive calls. How the source made its calls: active means hit-call score of the fitted dose curve at least 0.9, where 1 is the maximum; inconclusive means response in the unintended direction; inactive means score below 0.9.
These compounds were tested against Cellular tumor antigen p53 (Homo sapiens) (UniProt P04637) (assay: TOX21_p53_BLA_p5_ratio: Tox21 HCT-116 p53 Agonism Beta-lactamase Assay, Ratio, Phase 5 (AID 2283599)).
Text: TOX21_p53_BLA_p5 is a cell-based, single-readout assay that uses HCT116, a human intestinal cell line, […] in a 1536-well plate.TOX21_p53_BLA_p5_ratio is an assay readout measuring reporter gene via receptor activity and designed using inducible reporter (beta lactamase induction) detected with GAL4 b-lactamase reporter gene. The signal is derived from the ratio of cleaved (ch2) to uncleaved (ch1) reporter gene substrate used as the measure of target activity.Data from the assay component TOX21_p53_BLA_p5_ratio was analyzed into 1 assay endpoint. This assay endpoint, TOX21_p53_BLA_p5_ratio, was analyzed in the positive analysis fitting direction relative to DMSO as the negative control and baseline of activity. Using a type of inducible reporter, gain-of-signal activity can be used to understand changes in the reporter gene as they relate to the gene TP53. Furthermore, this assay endpoint can be referred to as a primary readout, because this assay has produced multiple assay endpoints and this ratio serves a reporter gene function to understand target activity. To generalize the intended target to other relatable targets, this assay endpoint is annotated to the DNA binding intended target family, where the subfamily is tumor suppressor.
Thawing Method: Place 14 mL of pre-warmed thaw medium into a 15 mL of conical tub. Remove the vial of cells to be thawed from liquid nitrogen and thaw rapidly by placing at 37C in a water bath with gentle agitation for 1-2 minutes. Decontaminate the vial by wiping with 70% ethanol before opening in a biological safety cabinet. Transfer the vial contents drop-wise into 14 mL of thaw medium in a sterile 15-mL conical tub. Centrifuge cells at 900 rpm for 4 minutes and resuspend in thaw medium. Transfer contents to the T75 tissue culture flask containing Thaw Medium and place flask in a humidified 37C/5% CO2 incubator. Switch to growth medium at first passage.Propagation Method: Aspirate medium, rinse once in DPBS, add 0.25% Trypsin/EDTA and swirl to coat the cell evenly. Add an equal volume of Growth Medium to inactivate Trypsin after 2-3 minutes incubation at 37C. Centrifuge cells at 900 rpm for 4 minutes and resuspend in growth medium. Cell should be passage or fed at least twice a week.Assay Protocol: Harvest cells from culture in growth medium and resuspend in assay medium. 2.2 Dispense 4000 cells/5 uL/well into 1536-well black/clear bottom plates using a Multidrop dispenser. After the cells were incubated at 37C for 5 hours, 23 nL of compounds dissolved in DMSO were transferred to the assay plate by a PinTool resulting in a 217-fold dilution. Incubate the plates for 16 hours at 37C, 5% CO2. Add 1 uL of 6X LiveBLAzer FRET B/G (CCF4-AM) Substrate Mixture to each well using a BioRAPTR dispenser and incubate the plates at room temperature for 2 hours. Measure fluorescence intensity at 460 and 530 nm emission and 405 nm excitation by an Envision detector. Data is expressed as the ratio of 460nm/530nm emissions. Add 4 uL of Cell-titer Glo to each well using BioRAPTR and incubate the plates at room temperature for 2 hours. Measure fluorescence intensity by a VewLux plate reader.

Protein sequences, listed by entry. Tags and fused reporters are not part of them.
UniProt P04637, whole entry, looked up: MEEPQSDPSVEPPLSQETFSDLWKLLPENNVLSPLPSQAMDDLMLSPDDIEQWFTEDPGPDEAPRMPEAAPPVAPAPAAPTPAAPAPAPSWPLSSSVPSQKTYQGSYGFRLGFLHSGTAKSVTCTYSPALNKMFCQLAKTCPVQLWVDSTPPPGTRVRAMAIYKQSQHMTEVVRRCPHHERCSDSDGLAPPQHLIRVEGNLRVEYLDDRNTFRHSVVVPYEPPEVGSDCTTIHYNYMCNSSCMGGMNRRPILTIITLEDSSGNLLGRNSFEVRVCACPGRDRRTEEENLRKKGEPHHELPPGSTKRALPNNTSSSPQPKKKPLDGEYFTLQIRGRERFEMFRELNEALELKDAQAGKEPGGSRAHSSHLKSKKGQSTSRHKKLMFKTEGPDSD

Row | Compound | outcome | AC50
1 | O=C1OC2(c3cc(Br)c(O)c(Br)c3Oc3c2cc(Br)c(O)c3Br)c2c(Cl)c(Cl)c(Cl)c(Cl)c21 | inactive | active: 50.2 µM
2 | O=C(O)CC(C(=O)O)C(CC(=O)O)C(=O)O (stereo not given) | – | inconclusive: 45.4 µM
3 | Cc1ccc(S(=O)(=O)O)c(C)c1 | – | inconclusive: 46.1 µM
4 | CCOC(=O)c1ccc(C)cc1 | – | inconclusive: 46.1 µM
5 | CC(C)(C#N)c1cc(Cn2cncn2)cc(C(C)(C)C#N)c1 | inactive | inconclusive: 23 µM
6 | CC(=O)Nc1ccc(S(N)(=O)=O)cc1 | – | inconclusive: 46.1 µM
7 | N=c1ccn2c(n1)O[C@H]1[C@H](O)[C@@H](CO)O[C@H]12 | – | active: 2.67 µM and active: 729 nM
8 | Fc1ccc(Br)cc1 | – | inconclusive: 46.1 µM
9 | COc1ccc(C(=O)/C(Br)=C\C(=O)O)cc1 | – | active: 21 µM and active: 21.6 µM
10 | Cc1occc(=O)c1OC(=O)C(C)C | – | inconclusive: 46.1 µM
11 | CCN(CC)c1ccc2c(C)cc(=O)oc2c1 | – | active: 38.6 µM and active: 31.6 µM
12 | CC(=O)NS(=O)(=O)c1ccc(N)cc1 | inactive | inconclusive: 46.1 µM
13 | Cc1ccc(O)c(C(C)(C)C)c1 | – | active: 60.5 µM and active: 67.9 µM
14 | CC(O)COc1ccccc1 (stereo not given) | – | inconclusive: 23 µM
15 | CN(C)CCCN1c2ccccc2Sc2ccc(Cl)cc21 | – | inconclusive: 23 µM
16 | C[C@H](CCC(=O)O)[C@H]1CC[C@H]2[C@@H]3CC[C@@H]4C[C@H](O)CC[C@]4(C)[C@H]3CC[C@]12C | inactive | active: 18.2 µM
17 | CN(C)C(=O)Nc1ccc(Oc2ccc(Cl)cc2)cc1 | inactive | –

Row | Compound | outcome | AC50
18 | CCCCC(CC)COC(=O)CCCCCCCCC(=O)OCC(CC)CCCC (stereo not given) | – | inconclusive: 46.1 µM
19 | Cc1cc(=O)[nH]c(C(C)C)n1 | – | inconclusive: 46.4 µM
20 | CCCCC(CC)COC(=O)c1ccc(N(C)C)cc1 (stereo not given) | – | inconclusive: 9.14 µM and inconclusive: 46.3 µM
21 | CCCCCCCCCCCSCC(=O)O | – | active: 83.5 µM
22 | CCCCCCCCOS(=O)(=O)O | – | inconclusive: 46.1 µM
23 | CC(=O)[C@@]1(O)CC[C@H]2[C@@H]3C[C@H](C)C4=CC(=O)C=C[C@]4(C)[C@@]3(F)[C@@H](O)C[C@@]21C | inactive | inconclusive: 0.981 µM
24 | Cc1ccc(N(C)C)cc1 | inactive | inconclusive: 46.1 µM
25 | CCCN(CCC)C(=O)SCC | – | inconclusive: 46.1 µM and inconclusive: 47.8 µM
26 | Cc1ccc(-c2ccccc2)cc1 | inactive | –
27 | Cc1ccc(C(=O)c2cc(O)c(O)c([N+](=O)[O-])c2)cc1 | – | active: 71.3 µM
28 | O=C(c1cc(O)c(O)c(O)c1)c1ccc(O)c(O)c1O | – | active: 86.8 µM and active: 74.6 µM
29 | CCCCCCCCCCCCCCCC(=O)OC/C=C(C)/C=C/C=C(C)/C=C/C1=C(C)CCCC1(C)C | – | inconclusive: 67.8 µM and inconclusive: 23 µM
30 | Nc1nc(N)c2nc(CNc3ccc(C(=O)N[C@@H](CCC(=O)O)C(=O)O)cc3)cnc2n1 | inactive | active: 0.158 µM
31 | OC[C@@H](O)[C@@H](O)[C@H](O)[C@H](O)CO | inactive | –
32 | CN(C)c1ccc(C(c2ccccc2)c2ccc(N(C)C)cc2)cc1 | inactive | –
33 | O=C(Nc1ccc([N+](=O)[O-])cc1Cl)c1cc(Cl)ccc1O | – | active: 315 nM and active: 320 nM
